Results taken from article PMC7819943, “Rice protein-binding microarrays: a tool to detect cis-acting elements near promoter regions in rice”.
Some of the results follow.

Protein sequences, listed by entry. Tags and fused reporters are not part of them.
UniProt Q0JBA9, entry or part of it: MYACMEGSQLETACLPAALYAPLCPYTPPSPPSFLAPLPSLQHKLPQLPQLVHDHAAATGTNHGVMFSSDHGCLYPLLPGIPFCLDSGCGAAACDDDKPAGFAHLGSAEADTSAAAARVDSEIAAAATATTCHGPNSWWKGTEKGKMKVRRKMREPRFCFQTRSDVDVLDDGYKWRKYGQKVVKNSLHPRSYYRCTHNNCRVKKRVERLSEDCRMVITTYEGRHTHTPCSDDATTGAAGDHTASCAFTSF

Biological target: OsWRKY34 (Oryza sativa, UniProt Q0JBA9 1-250)
Test: protein-binding microarray (RPBM); PBS, 2% BSA, 51.3 ng/ul salmon testes DNA, 50 uM zinc acetate, 200 nM TF, 25 C, 1 h; high values mean tight binding
Details: protein: recombinant; tags: N-terminal polyhistidine and DsRed monomer fusion (pET32a); label: CyDye5-dUTP incorporated in the synthesized complementary strand; 3' TTTTT single-stranded linker to array surface; dsDNA, one strand shown
Procedure, shortened: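 Ni–NTA purification followed expression in E. coli BL21-CodonPlus of transcription factors fused N-terminally to a polyhistidine tag and DsRed. At 200 nM in PBS with 2% BSA, salmon testes DNA and 50 µM zinc acetate, the protein was incubated for 1 h at 25 °C with a custom Agilent array that had been primer-extended with Cy5-dUTP and blocked with 2% BSA. After washing, the array was read on an Axon 4000B scanner. The binding signal is per-feature fluorescence intensity in arbitrary units.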

Sequence | binding signal
TGGAGGCACATTAATTAATTATTATCATGATCCATTTGCCCGGAGTCACCTAGTGCAG | 11600 fluorescence intensity (a.u.)
TCTCATCGCTGACAAACGCTTCGATTATTCTATCTCCGAACGGAGTCACCTAGTGCAG | 8790 fluorescence intensity (a.u.)
TTGGCTACTTGGCTGGTTCTCTTGCTGTTCGAACAGCGCCCGGAGTCACCTAGTGCAG | 9880 fluorescence intensity (a.u.)
CACCACCACTGAGCTGCCACTACTCATCCAGCTAACTAGGCGGAGTCACCTAGTGCAG | 8030 fluorescence intensity (a.u.)
TGCTACTCATACTATTTTTCTTTCTTTTTTTCGCATAGCTCGGAGTCACCTAGTGCAG | 8080 fluorescence intensity (a.u.)
TCTCTGGTTCCTCACTTTATTGATTAGCTTTTAAGATGGACGGAGTCACCTAGTGCAG | 8280 fluorescence intensity (a.u.)
CTCCAACCTTTTTGTTTGTGTCTCATCATTGGCTGCTATACGGAGTCACCTAGTGCAG | 13800 fluorescence intensity (a.u.)
CCACGCCGCACCCACCCACTGCCCGTTCCGTTCCGGCGACCGGAGTCACCTAGTGCAG | 10900 fluorescence intensity (a.u.)
AGTCTAGGTCTTTCTTTGTCCTTAATTAATATATATTTGTCGGAGTCACCTAGTGCAG | 12800 fluorescence intensity (a.u.)
TACGGACTCCTCACTTCTTCTTCTTCTTTTTTCTTTTTTTCGGAGTCACCTAGTGCAG | 14300 fluorescence intensity (a.u.)
TGTTTCACCAGTGGTCAATTGCAACATTTGACCGATCGATCGGAGTCACCTAGTGCAG | 12300 fluorescence intensity (a.u.)
ATGAGGGGTCGGGGTTGGGCGGCGTGGGCACGGGCTCGAGCGGAGTCACCTAGTGCAG | 13000 fluorescence intensity (a.u.)
TTCTTTCAGTCTTTCTTTCTTCTTCTTGTTTGCTGATCTTCGGAGTCACCTAGTGCAG | 8500 fluorescence intensity (a.u.)
AAATCTCTGAAGCTTGATGTCTGAACATGCTGTTCATTTCCGGAGTCACCTAGTGCAG | 8720 fluorescence intensity (a.u.)
CCTAGTCGCCGCCGCCGCTCACGCCCTCCTCACTCTCGTCCGGAGTCACCTAGTGCAG | 9760 fluorescence intensity (a.u.)
AACAGTGGTCATTGTGTTGCATCCCGAGTTCTCGTTCTCACGGAGTCACCTAGTGCAG | 8480 fluorescence intensity (a.u.)
GAGAGAGAGAGAGAGGGGAGGGGAGGGCGTGTGCTCGCGCCGGAGTCACCTAGTGCAG | 10600 fluorescence intensity (a.u.)
TTCCCGAGGATATATAATCGATCATGCTACACGTGACATACGGAGTCACCTAGTGCAG | 9140 fluorescence intensity (a.u.)
TTTGGTTTGGTTTGGTCTCGGTTCAGATCTTCTCTCCAAACGGAGTCACCTAGTGCAG | 12700 fluorescence intensity (a.u.)
CGCATCCGCATCCATACGTCATCCGCATCCGCTTAAAAAACGGAGTCACCTAGTGCAG | 8710 fluorescence intensity (a.u.)
TTTAACTTAGGGTGTGTTTGGTTGCTTGTATGTCCCTAGTCGGAGTCACCTAGTGCAG | 10900 fluorescence intensity (a.u.)

Nothing new here: entries from further up.
Sequence | binding signal
CACCACCACTGAGCTGCCACTACTCATCCAGCTAACTAGGCGGAGTCACCTAGTGCAG | 8030 fluorescence intensity (a.u.)
TGCTACTCATACTATTTTTCTTTCTTTTTTTCGCATAGCTCGGAGTCACCTAGTGCAG | 8080 fluorescence intensity (a.u.)

Next entries.

Sequence | binding signal
GTTATAAGACATTTTGATTTTGGTCAAAGTAAAACTGCTTCGGAGTCACCTAGTGCAG | 8210 fluorescence intensity (a.u.)
AACATCCATCACTGCAGCAAATCATCATCATCATCATCATCGGAGTCACCTAGTGCAG | 8960 fluorescence intensity (a.u.)
TGATTTCTTCCACTGTCAGGTATCTCCTCCACCCTAGCCGCGGAGTCACCTAGTGCAG | 8310 fluorescence intensity (a.u.)
CTTTCTCCGGATTCGAATCATTCCTCTCTATCTATCTCATCGGAGTCACCTAGTGCAG | 11900 fluorescence intensity (a.u.)
CGCCTGCCTGCCGCCACCGCCACTCCACTTTGCTTCACCGCGGAGTCACCTAGTGCAG | 9570 fluorescence intensity (a.u.)
GTGCGGCGGTGGGGTTGGTCGAGGCGGCCGAGGGCTCGTCCGGAGTCACCTAGTGCAG | 9160 fluorescence intensity (a.u.)
GCGCCGCCGCCGTTCGTCCTGCTGCTTCCGCCGCATCCCGCGGAGTCACCTAGTGCAG | 12000 fluorescence intensity (a.u.)
CGGATTTGCCCAATTTGGCTCGTGTGTGAAAGCCTCCAAACGGAGTCACCTAGTGCAG | 8490 fluorescence intensity (a.u.)
CTTACGAGCCAGTCTTTGAAATTCATTTGGATTTGAATTTCGGAGTCACCTAGTGCAG | 9790 fluorescence intensity (a.u.)
CGTCGTTAGGTTGTCCATAGCAGCCGAATTGTTTCTGCATCGGAGTCACCTAGTGCAG | 8100 fluorescence intensity (a.u.)
AATTTATTTTGTTATGAGTTGTTTTATCACTTATAGTATTCGGAGTCACCTAGTGCAG | 9560 fluorescence intensity (a.u.)
GCCAGCCCTTGAATCCTTATTAGCTCCGCCTCTGTCCTTCCGGAGTCACCTAGTGCAG | 8680 fluorescence intensity (a.u.)
TACCTGCCCTTTCGTCTACCTCCAGTTCCTCTCTCTCTCTCGGAGTCACCTAGTGCAG | 8850 fluorescence intensity (a.u.)
CACCAGCTACTAGTCGAGCACTCTCTCCATCCTATAAAAACGGAGTCACCTAGTGCAG | 8600 fluorescence intensity (a.u.)
ATATAGCTTGTCATCGTACTTACTTCATTTGTTTAATTATCGGAGTCACCTAGTGCAG | 9880 fluorescence intensity (a.u.)
CGTCTCGATCGTATCTACAACATACTGCTTCCAACCAACACGGAGTCACCTAGTGCAG | 8250 fluorescence intensity (a.u.)
GGTAATAATTTGTTTAGCTCCTGGTTTGGAATGGTATATTCGGAGTCACCTAGTGCAG | 10100 fluorescence intensity (a.u.)
CTTTTCTTTTTTCTTTTTCTCCGATTAATGTGGGAATTTCCGGAGTCACCTAGTGCAG | 8180 fluorescence intensity (a.u.)
AAGCGGACATCTTTTCTTCCACCATCCTACTTTCCTGGTCCGGAGTCACCTAGTGCAG | 14200 fluorescence intensity (a.u.)
AAGGGTGTGTTTGGATAATGAAAAATGGAGGGTGGAATTACGGAGTCACCTAGTGCAG | 8560 fluorescence intensity (a.u.)
CTCGTCTTGGTAGGTGGTGGATGGCCGGCGCGGGGATCGACGGAGTCACCTAGTGCAG | 10200 fluorescence intensity (a.u.)
